Data reported in paper doi:10.1101/2022.05.11.491529.
No constants are given. Whether binding was seen depends on the method and setting. In cells and extracts the contact can be indirect. Here binding means that the protein was enriched with, or labelled near, the bait; the list need not be complete.

The chains behind the UniProt entries cited, without tags or fusion partners. Where a name states a change or a piece, a line headed by the entry shows the natural chain unless it says otherwise.
UniProt Q3U9G9: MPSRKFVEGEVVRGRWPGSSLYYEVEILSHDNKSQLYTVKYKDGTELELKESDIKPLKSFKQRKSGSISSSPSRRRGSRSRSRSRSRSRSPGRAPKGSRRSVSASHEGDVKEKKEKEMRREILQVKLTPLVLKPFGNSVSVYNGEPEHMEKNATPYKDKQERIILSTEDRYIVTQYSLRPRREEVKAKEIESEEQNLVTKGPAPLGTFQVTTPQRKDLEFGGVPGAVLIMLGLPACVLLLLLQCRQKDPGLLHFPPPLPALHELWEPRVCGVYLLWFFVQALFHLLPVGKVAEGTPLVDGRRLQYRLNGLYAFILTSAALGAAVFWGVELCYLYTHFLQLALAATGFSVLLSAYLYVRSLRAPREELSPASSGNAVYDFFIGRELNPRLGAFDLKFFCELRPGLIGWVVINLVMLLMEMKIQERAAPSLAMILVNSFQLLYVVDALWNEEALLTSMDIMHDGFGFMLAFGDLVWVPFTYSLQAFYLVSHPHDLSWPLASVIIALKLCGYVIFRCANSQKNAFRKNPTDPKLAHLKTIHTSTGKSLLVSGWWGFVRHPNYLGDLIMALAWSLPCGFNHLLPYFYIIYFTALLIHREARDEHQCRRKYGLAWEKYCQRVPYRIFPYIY
UniProt O08579: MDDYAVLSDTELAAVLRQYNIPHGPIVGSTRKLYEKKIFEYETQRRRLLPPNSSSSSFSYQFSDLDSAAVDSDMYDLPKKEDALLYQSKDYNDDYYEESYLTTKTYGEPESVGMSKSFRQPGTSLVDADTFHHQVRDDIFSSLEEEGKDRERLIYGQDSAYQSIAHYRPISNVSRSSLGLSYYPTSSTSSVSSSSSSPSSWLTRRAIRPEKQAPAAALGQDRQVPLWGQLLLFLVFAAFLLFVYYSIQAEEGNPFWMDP

Tests used:
[1] = target: V5-tagged TbID fused to the N-terminus of LBR (mouse (cDNA library from C3H/10T1/2 cells)) (UniProt Q3U9G9); test: proximity labelling
[2] = target: V5-tagged TbID fused to the N-terminus of emerin (mouse (cDNA library from C3H/10T1/2 cells)) (UniProt O08579); test: proximity labelling

B1: Sun2 (protein, UniProt Q8BJS4 1-731)
chain: MSRRSQRLTRYSQDDNDGGSSSSGASSVAGSQGTVFKDSPLRTLKRKSSNMKHLSPAPQLGPSSDSHTSYYSESVVRESYIGSPRAVSLARSALLDDHLHSEPYWSGDLRGRRRRGTGGSESSKANGLTAESKASEDFFGSSSGYSSEDDLAGYTDSDQHSSGSRLRSAASRAGSFVWTLVTFPGRLFGLLYWWIGTTWYRLTTAASLLDVFVLTRSRHFSLNLKSFLWFLLLLLLLTGLTYGAWHFYPLGLQTLQPAVVSWWAAKESRKQPEVWESRDASQHFQAEQRVLSRVHSLERRLEALAADFSSNWQKEAIRLERLELRQGAAGHGGGSSLSHEDALSLLEGLVSRREATLKEDLRRDTVAHIQEELATLRAEHHQDSEDLFKKIVQASQESEARVQQLKTEWKSMTQEAFQESSVKELGRLEAQLASLRQELAALTLKQNSVADEVGLLPQKIQAARADVESQFPDWIRQFLLGDRGARSGLLQRDEMHAQLQELENKILTKMAEMQGKSAREAAASLGQILQKEGIVGVTEEQVHRIVKQALQRYSEDRIGMVDYALESGGASVISTRCSETYETKTALLSLFGIPLWYHSQSPRVILQPDVHPGNCWAFQGPQGFAVVRLSARIRPTAVTLEHVPKALSPNSTISSAPKDFAIFGFDEDLQQEGTLLGTFAYDQDGEPIQTFYFQASKMATYQVVELRILTNWGHPEYTCIYRFRVHGEPAH
With B1 the binding [1] was “binds” and the binding [2] was “binds”.
